For the assay, the target named is Hsp90. The assay can be described thus: co-immunoprecipitation of 35S labeled Hsp90 with T7-agarose, bands quantified with a phosphoimager.

These are yes or no findings as the source states them, for the method shown. In cells and extracts the contact can be indirect. A result given as binding can be weak or reduced; the word gives no strength. Where a sequence is shown, tags or fusion partners need not be part of it.

B1: T7 tagged full length ARA9 expressed in bacteria (pET17b-ARA9, PL799) (protein)
chain: MASMTGGQQMGMADIIARLREDGIQKRVIQEGRGELPDFQDGTKATFHYRTLHSDDEGTVLDDSRARGKPMELIIGKKFKLPVWETIVCTMREGEIAQFLCDIKHVVLYPLVAKSLRNIAVGKDPLEGQRHCCGVAQMREHSSLGHADLDALQQNPQPLIFHMEMLKVESPGTYQQDPWAMTDEEKAKAVPLIHQEGNRLYREGHVKEAAAKYYDAIACLKNLQMKEQPGSPEWIQLDQQITPLLLNYCQCKLVVEEYYEVLDHCSSILNKYDDNVKAYFKRGKAHAAVWNAQEAQADFAKVLELDPALAPVVSRELRALEARIRQKDEEDKARFRGIFSH
B1: the binding result is “binds”.
